Experimental data reported in paper PMC10850381.
No constants are given. Whether binding was seen depends on the method and setting. For some of these results: In cells and extracts the contact can be indirect. Some results given as binding are weak or reduced against the parent protein; the word gives no strength.

Sequences of proteins named here, by UniProt entry; tags and fusion partners are left off. A change or cut given only in a name is not applied to a line headed by its entry. Residues count along the entry.
UniProt P10909: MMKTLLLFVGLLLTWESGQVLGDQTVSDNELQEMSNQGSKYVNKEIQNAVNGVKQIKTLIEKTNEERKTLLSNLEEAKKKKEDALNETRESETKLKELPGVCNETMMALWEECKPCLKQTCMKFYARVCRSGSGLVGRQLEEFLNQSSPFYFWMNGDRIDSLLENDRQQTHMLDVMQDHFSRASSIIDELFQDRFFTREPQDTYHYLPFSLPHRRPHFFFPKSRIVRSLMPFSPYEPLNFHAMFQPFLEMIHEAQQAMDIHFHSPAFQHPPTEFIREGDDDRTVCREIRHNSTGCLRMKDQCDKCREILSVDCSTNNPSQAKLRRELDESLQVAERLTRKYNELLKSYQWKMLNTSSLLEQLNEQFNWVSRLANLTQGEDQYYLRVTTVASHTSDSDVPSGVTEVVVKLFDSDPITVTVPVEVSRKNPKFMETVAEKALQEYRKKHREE
UniProt P10643, residues 23-843: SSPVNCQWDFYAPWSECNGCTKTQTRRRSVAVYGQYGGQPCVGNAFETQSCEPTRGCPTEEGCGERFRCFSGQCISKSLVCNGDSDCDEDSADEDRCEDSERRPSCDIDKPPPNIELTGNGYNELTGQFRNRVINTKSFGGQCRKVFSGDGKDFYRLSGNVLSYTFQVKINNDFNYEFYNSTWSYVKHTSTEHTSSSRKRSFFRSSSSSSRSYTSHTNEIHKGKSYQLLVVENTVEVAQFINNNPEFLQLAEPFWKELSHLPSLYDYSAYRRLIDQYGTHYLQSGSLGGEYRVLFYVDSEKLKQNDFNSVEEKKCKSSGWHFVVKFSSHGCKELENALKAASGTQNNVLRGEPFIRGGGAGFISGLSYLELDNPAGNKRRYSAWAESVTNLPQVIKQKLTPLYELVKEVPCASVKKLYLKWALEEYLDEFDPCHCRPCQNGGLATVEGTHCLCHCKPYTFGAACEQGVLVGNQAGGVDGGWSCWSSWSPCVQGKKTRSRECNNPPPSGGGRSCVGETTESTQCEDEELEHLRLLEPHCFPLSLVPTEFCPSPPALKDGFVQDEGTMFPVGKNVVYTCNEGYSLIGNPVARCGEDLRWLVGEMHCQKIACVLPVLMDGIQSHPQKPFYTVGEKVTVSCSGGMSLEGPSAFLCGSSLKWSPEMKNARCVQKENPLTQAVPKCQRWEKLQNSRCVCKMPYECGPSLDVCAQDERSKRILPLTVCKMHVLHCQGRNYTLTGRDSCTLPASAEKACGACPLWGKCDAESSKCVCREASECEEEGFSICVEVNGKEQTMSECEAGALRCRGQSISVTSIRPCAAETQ

Tests used:
[1] = target: Clusterin (human (endogenous in normal human serum)) (UniProt P10909); test: co-IP; clusterin captured from NHS with anti-clusterin mAb MC-2D5; eluate on SDS-PAGE (non-reducing and reducing), blot probed with anti-C7 mAb M7-HB2H
[2] = target: Complement C7 (human (endogenous in normal human serum)) (UniProt P10643); test: co-IP; C7 captured from NHS with anti-C7 mAbs M7-WU4-15 or M7-HB2H; eluate on SDS-PAGE (non-reducing and reducing), blot probed with anti-clusterin mAb MC-2D5
[3] = target: Complement C7 (human (endogenous in normal human serum)) (UniProt P10643); test: ELISA; custom sandwich ELISA: plate-coated anti-C7 mAb captures C7, bound clusterin detected with HRP-conjugated anti-clusterin mAb; samples 30 min at room temperature: serum-purified C7, NHS, zymosan-activated NHS, EDTA plasma; complex in AU/mL against serum-purified C7 as standard
[4] = target: Complement C7 (human (endogenous in normal human serum)) (UniProt P10643); test: SEC; pooled NHS, ultracentrifuged, on Superdex 200 HR 10/30 in PBS (150 mM NaCl, pH 7.4), 4°C; fractions analysed by non-reducing Western blot and by C7-CLU and C7 ELISA

| Substance | binding [1] | binding [2] | binding [3] | binding [4] |
| --- | --- | --- | --- | --- |
| Complement C7 (from UniProt P10643 23-843) | binds |  |  |  |
| Clusterin (from UniProt P10909 23-227; P10909 228-449) |  | binds | binds | binds |
